The nature of the series: general procedure: Boc solid-phase peptide synthesis; 1.4% crosslinked 100-200 mesh phenolic resin (acetoxystyrene/styrene/divinylbenzene copolymer, deacetylated); peptide ph; DCCI (with pyridine, N-methyl morpholine or HOBt). Conditions: whole synthesis, overall, based on methionine originally coupled to the resin, hydrochloride (lyophilised from HCl).

For BOC-Tyr-Gly-Gly-Phe-Met-OH, the isolated yield is listed as 58%.
